PubChem BioAssay AID1224830 | NIAID | 2016
Here is a random part of about 18,000 reagents. Over the whole deposit, about 2,900 (16%) were called active. 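Calls are made per well; low scores hint the gene aids the LPS response, high scores that it dampens it.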 Repeated entries: four replicate wells of each siRNA pool.

Assay: 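Genes whose knock-down alters the TNF-alpha reporter response to LPS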 (primary screen)
System: human THP-1 monocytic leukaemia cells, TNF dual-luciferase reporter clone, PMA-differentiated to macrophage-like cells
Reagent: siRNA pool against human genes, 50 nM
Time to read-out: LPS for 4 h, given about 3 days after siRNA transfection
Treatment: bacterial LPS (TLR4 ligand), 10 ng/ml
Measurement: 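TNF firefly reporter luminescence divided by renilla, normalised to the plate median, then turned into a robust z-score for each replicate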
Scale: TNF reporter robust z-score: higher = stronger TNF reporter response to LPS
Hit rule: 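Each well counts as active if its z-score is over 2.8 or under -1.5; controls are left without a call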

no.	gene symbol	TNF reporter robust z-score	call
1	LINC00477	4.74	active
2	LINC00477	4.08	active
3	LINC00477	0.77	inactive
4	LINC00477	0.83	inactive
5	SQLE	-0.19	inactive
6	SQLE	0.01	inactive
7	SQLE	-0.58	inactive
8	SQLE	-0.24	inactive
9	ZNF254	-0.39	inactive
10	ZNF254	-0.48	inactive
11	ZNF254	-1.17	inactive
12	ZNF254	-0.36	inactive
13	SOD1	-0.44	inactive
14	SOD1	-0.78	inactive
15	SOD1	0.18	inactive
16	SOD1	-0.37	inactive
17	ING2	1.31	inactive
18	ING2	-0.37	inactive
19	ING2	-0.07	inactive
20	ING2	1.53	inactive
21	DEFB1	0.26	inactive
22	DEFB1	1.01	inactive
23	DEFB1	0.06	inactive
24	DEFB1	1.3	inactive
25	BAG4	-0.44	inactive
26	BAG4	0.95	inactive
27	BAG4	-1.13	inactive
28	BAG4	0.5	inactive
29	CNBD2	-0.47	inactive
30	CNBD2	0.02	inactive
31	CNBD2	0.8	inactive
32	CNBD2	0.24	inactive
33	CARD16	1.62	inactive
34	CARD16	1.53	inactive
35	CARD16	5.34	active
36	CARD16	0.52	inactive
37	CP	0.18	inactive
38	CP	1.29	inactive
39	CP	1.11	inactive
40	CP	1.62	inactive
41	FAM107A	-0.21	inactive
42	FAM107A	-0.43	inactive
43	FAM107A	-0.52	inactive
44	FAM107A	-0.85	inactive
45	OTOP2	-0.41	inactive
46	OTOP2	-0.81	inactive
47	OTOP2	-0.88	inactive
48	OTOP2	-0.33	inactive
49	RMND1	0.41	inactive
50	RMND1	-0.6	inactive
51	RMND1	-1.14	inactive
52	RMND1	0.02	inactive
53	CPTP	-0.21	inactive
54	CPTP	-0.3	inactive
55	CPTP	-0.4	inactive
56	CPTP	-0.06	inactive
57	SNED1	-0.43	inactive
58	SNED1	-0.67	inactive
59	SNED1	0.95	inactive
60	SNED1	0.68	inactive
61	BCL9L	0.03	inactive
62	BCL9L	0.71	inactive
63	BCL9L	0.59	inactive
64	BCL9L	0.63	inactive
65	TGM2	-0.68	inactive
66	TGM2	0.37	inactive
67	TGM2	1.2	inactive
68	TGM2	-1.02	inactive
69	MEGF11	0.09	inactive
70	MEGF11	-0.63	inactive
71	MEGF11	0.17	inactive
72	MEGF11	-0.89	inactive
73	PTPN23	-0.08	inactive
74	PTPN23	0.62	inactive
75	PTPN23	-0.11	inactive
76	PTPN23	1.9	inactive
